Binding data for 1 molecule are collected here from publication PMC9300173.

Results are given in words; binding and its absence hold for the method and conditions named. A result given as binding can be weak or reduced; the word gives no strength. Tags and fused reporters may be left off the sequences shown.

The assay has as its target Lew1, yeast two-hybrid fusion (Arabidopsis thaliana). Nature of the assay: two-hybrid; pGADT7-GW and pGBKT7-GW in S. cerevisiae AH109; serial dilutions of double transformants on -Leu/-Trp/-His plates with 1 mM 3-AT; at least three replicates.

B1: cis-prenyltransferase 3 (CPT3), yeast two-hybrid fusion (enzyme, UniProt Q8S2T1 1-295)
chain: MAELPGQIRHIGGRMSQLLEQIYGFSRRSLFRVISMGPIPCHIAFIMDGNRRYAKKCGLLDGSGHKAGFSALMSMLQYCYELGIKYVTIYAFSIDNFRRKPEEVESVMDLMLEKIKSLLEKESIVHQYGIRVYFIGNLALLNDQVRAAAEKVMKATAKNSRVVLLICIAYNSTDEIVQAVKKSCINKSDNIEASNYKHEDSDSDIEGTDMENQEKKIQLVDIEENMQMSVAPNPDILIRSSGETRLSNFLLWQTGNTQLCSPAALWPEIGLRHLLWAILNFQRNHSYLEKRKKQL
B1: the binding result is listed as “binds”.
